Among the data in PMC7296103, “Live Cell Imaging Demonstrates Multiple Routes Toward a STAT1 Gain-of-Function Phenotype” (Frontiers in Immunology, 2020) are binding values, retold here.

Where a chain is given by its changes, count along the chain named. Names and notes keep the numbering of the source. No constants are given. Whether binding was seen depends on the method and setting. Some entries that bind do so weakly or less than the wild type.

One assay deals with STAT1-GFP E411A (UniProt P42224). The assay can be described thus: raster image correlation spectroscopy (RICS), molecular brightness; living U3A cells after IFNγ (1 U/μl, 1 h), 37°C; cytoplasm; brightness as fold of cytoplasmic STAT1 WT.
Assay [1] concerns the target STAT1-GFP R274W (UniProt P42224). As to the kind of experiment: raster image correlation spectroscopy (RICS), molecular brightness; living U3A cells, unstimulated, 37°C; cytoplasm and nucleus; brightness of STAT1-GFP compared with monomeric GFP.
For assay [2] the target is unchanged. As to the kind of experiment: raster image correlation spectroscopy (RICS), molecular brightness; living U3A cells after IFNγ (1 U/μl, 1 h), 37°C; cytoplasm; brightness as fold of cytoplasmic STAT1 WT.
For a further assay, the target named is STAT1-GFP T419R (UniProt P42224). As to the kind of experiment: raster image correlation spectroscopy (RICS), molecular brightness; living U3A cells, unstimulated, 37°C; cytoplasm and nucleus; brightness of STAT1-GFP compared with monomeric GFP.
A further assay deals with STAT1-GFP N574I (UniProt P42224). The assay is described as above.
The target of a further assay is STAT1-GFP R321S (UniProt P42224). The assay is described as above.
The target in a further assay is STAT1-GFP Y701A (UniProt P42224). The assay can be described thus: raster image correlation spectroscopy (RICS), molecular brightness; living U3A cells after IFNγ (1 U/μl, 1 h), 37°C; cytoplasm; brightness as fold of cytoplasmic STAT1 WT.

B1: STAT1-GFP E411A (natural protein, UniProt P42224 1-750, looked up)
chain: MSQWYELQQLDSKFLEQVHQLYDDSFPMEIRQYLAQWLEKQDWEHAANDVSFATIRFHDLLSQLDDQYSRFSLENNFLLQHNIRKSKRNLQDNFQEDPIQMSMIIYSCLKEERKILENAQRFNQAQSGNIQSTVMLDKQKELDSKVRNVKDKVMCIEHEIKSLEDLQDEYDFKCKTLQNREHETNGVAKSDQKQEQLLLKKMYLMLDNKRKEVVHKIIELLNVTELTQNALINDELVEWKRRQQSACIGGPPNACLDQLQNWFTIVAESLQQVRQQLKKLEELEQKYTYEHDPITKNKQVLWDRTFSLFQQLIQSSFVVERQPCMPTHPQRPLVLKTGVQFTVKLRLLVKLQELNYNLKVKVLFDKDVNERNTVKGFRKFNILGTHTKVMNMEESTNGSLAAEFRHLQLKAQKNAGTRTNEGPLIVTEELHSLSFETQLCQPGLVIDLETTSLPVVVISNVSQLPSGWASILWYNMLVAEPRNLSFFLTPPCARWAQLSEVLSWQFSSVTKRGLNVDQLNMLGEKLLGPNASPDGLIPWTRFCKENINDKNFPFWLWIESILELIKKHLLPLWNDGCIMGFISKERERALLKDQQPGTFLLRFSESSREGAITFTWVERSQNGGEPDFHAVEPYTKKELSAVTFPDIIRNYKVMAAENIPENPLKYLYPNIDKDHAFGKYYSRPKEAPEPMELDGPKGTGYIKTELISVSEVHPSRLQTTDNLLPMSPEEFDEVSRIVGSVEFDSMMNTV
notes: Artificial mutation, not reported in patients; also called STAT1E411A-eGFP; source: measured in living cells; not shown: eGFP, C-terminal, kept
For the molecule B1, the binding entry with STAT1-GFP E411A is listed as “binds”.

B2: STAT1-GFP R274W (natural protein, UniProt P42224 1-750, looked up)
chain: B1 chain with R274W, A411E
notes: STAT1 with the patient gain-of-function mutation R274W (coiled-coil domain); Mutation reported in patients; also called STAT1R274W-eGFP; source: measured in living cells; not shown: eGFP, C-terminal, kept
As for B2, the binding result in the assay with STAT1-GFP R274W [1] and with STAT1-GFP R274W [2] was “binds” in each case.

B3: STAT1-GFP T419R (natural protein, UniProt P42224 1-750, looked up)
chain: B1 chain with A411E, T419R
notes: Mutation reported in patients; also called STAT1T419R-eGFP; source: measured in living cells; not shown: eGFP, C-terminal, kept
Turning to B3, the binding entry with STAT1-GFP T419R was “binds”.

B4: STAT1-GFP N574I (natural protein, UniProt P42224 1-750, looked up)
chain: B1 chain with A411E, N574I
notes: STAT1 with the patient gain-of-function mutation N574I (linker domain); Mutation reported in patients; also called STAT1N574I-eGFP; N571I (as printed in some places); source: measured in living cells; not shown: eGFP, C-terminal, kept
On to B4, for which the binding result with STAT1-GFP N574I was “binds”.

B5: STAT1-GFP R321S (natural protein, UniProt P42224 1-750, looked up)
chain: B1 chain with R321S, A411E
notes: Mutation reported in patients; also called STAT1R321S-eGFP; source: measured in living cells; not shown: eGFP, C-terminal, kept
Turning to B5, in the assay with STAT1-GFP R321S, the binding result is reported as “binds”.

B6: STAT1-GFP Y701A (natural protein, UniProt P42224 1-750, looked up)
chain: B1 chain with A411E, Y701A
notes: Non-clinical control; also called STAT1Y701A-eGFP; source: measured in living cells; not shown: eGFP, C-terminal, kept
Take B6: the binding result in the assay with STAT1-GFP Y701A is on record as “binds”.
